This note sets out measurements from publication PMC5435354.

No constants are given. Whether binding was seen depends on the method and setting. In cells and extracts the contact can be indirect. For some assays here: Binding can be weak; no strength is given. For some assays here: Where a sequence is shown, tags or fusion partners need not be part of it.

For assay [1], the target named is T1, EDS1-Myc (C-terminally Myc-tagged EDS1) (UniProt Q9SU72).
T1 sequence: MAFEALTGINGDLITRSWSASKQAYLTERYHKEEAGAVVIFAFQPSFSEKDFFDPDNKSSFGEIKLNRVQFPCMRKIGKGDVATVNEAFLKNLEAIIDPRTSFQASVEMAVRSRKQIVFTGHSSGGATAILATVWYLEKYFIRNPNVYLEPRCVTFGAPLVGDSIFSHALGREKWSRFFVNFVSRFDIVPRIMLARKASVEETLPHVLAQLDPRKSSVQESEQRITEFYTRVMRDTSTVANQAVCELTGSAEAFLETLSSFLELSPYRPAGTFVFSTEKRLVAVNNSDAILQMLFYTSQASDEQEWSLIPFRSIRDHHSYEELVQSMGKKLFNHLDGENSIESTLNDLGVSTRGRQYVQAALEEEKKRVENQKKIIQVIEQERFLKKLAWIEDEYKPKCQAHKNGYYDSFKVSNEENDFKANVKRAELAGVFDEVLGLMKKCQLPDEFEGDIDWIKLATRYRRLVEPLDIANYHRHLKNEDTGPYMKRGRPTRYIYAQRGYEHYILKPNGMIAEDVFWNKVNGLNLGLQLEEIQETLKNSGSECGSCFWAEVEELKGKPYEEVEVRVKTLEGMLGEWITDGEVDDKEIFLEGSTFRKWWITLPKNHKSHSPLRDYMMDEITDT
The assay is described as follows: co-IP.

The target in the next assay is T2, nVenus-EDS1 (UniProt Q9SU72).
T2 sequence: T1 sequence
Description: split reporter.

Another assay concerns the target T3, nVenus-PAD4 (UniProt Q9S745).
T3 sequence: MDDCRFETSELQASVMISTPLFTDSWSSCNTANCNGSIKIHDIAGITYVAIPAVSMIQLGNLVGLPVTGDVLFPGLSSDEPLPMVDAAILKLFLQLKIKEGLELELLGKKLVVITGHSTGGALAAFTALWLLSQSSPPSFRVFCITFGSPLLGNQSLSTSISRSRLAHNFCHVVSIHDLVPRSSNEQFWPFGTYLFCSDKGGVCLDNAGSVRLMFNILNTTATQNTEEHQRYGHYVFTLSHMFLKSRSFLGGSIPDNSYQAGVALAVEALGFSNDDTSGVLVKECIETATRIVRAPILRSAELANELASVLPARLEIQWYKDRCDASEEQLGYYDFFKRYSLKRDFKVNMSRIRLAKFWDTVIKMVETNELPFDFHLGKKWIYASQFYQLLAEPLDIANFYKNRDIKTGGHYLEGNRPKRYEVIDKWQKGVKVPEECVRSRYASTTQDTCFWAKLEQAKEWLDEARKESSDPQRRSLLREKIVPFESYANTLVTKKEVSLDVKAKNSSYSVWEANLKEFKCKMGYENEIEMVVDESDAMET
Description: split reporter.

The target of assay [2] is AvrRps4-GFP (Pseudomonas syringae) (UniProt Q48B92). Description: co-IP.

On to “AvrRps4^E187A-GFP (Pseudomonas syringae)”, for which, in assay [1], the binding entry is given as “binds”. As to AvrRps4-cCFP (Pseudomonas syringae), the binding result is given as “binds” in the assay with nVenus-EDS1 and “no binding” with nVenus-PAD4.

B1: PAD4-HA (phytoalexin deficient 4, HA-tagged) (protein, UniProt Q9S745 1-541)
chain: T3 sequence
For B1, the binding result in assay [2] is “binds”.

B2: RPS4-Myc (protein, UniProt Q9XGM3 1-1217)
chain: METSSISTVEDKPPQHQVFINFRGADLRRRFVSHLVTALKLNNINVFIDDYEDRGQPLDVLLKRIEESKIVLAIFSGNYTESVWCVRELEKIKDCTDEGTLVAIPIFYKLEPSTVRDLKGKFGDRFRSMAKGDERKKKWKEAFNLIPNIMGIIIDKKSVESEKVNEIVKAVKTALTGIPPEGSHNAVVGALGNSNAGTSSGDKKHETFGNEQRLKDLEEKLDRDKYKGTRIIGVVGMPGIGKTTLLKELYKTWQGKFSRHALIDQIRVKSKHLELDRLPQMLLGELSKLNHPHVDNLKDPYSQLHERKVLVVLDDVSKREQIDALREILDWIKEGKEGSRVVIATSDMSLTNGLVDDTYMVQNLNHRDSLQLFHYHAFIDDQANPQKKDFMKLSEGFVHYARGHPLALKVLGGELNKKSMDHWNSKMKKLAQSPSPNIVSVFQVSYDELTTAQKDAFLDIACFRSQDKDYVESLLASSDLGSAEAMSAVKSLTDKFLINTCDGRVEMHDLLYKFSREVDLKASNQDGSRQRRLWLHQHIIKGGIINVLQNKMKAANVRGIFLDLSEVEDETSLDRDHFINMGNLRYLKFYNSHCPQECKTNNKINIPDKLKLPLKEVRCLHWLKFPLETLPNDFNPINLVDLKLPYSEMEQLWEGDKDTPCLRWVDLNHSSKLCSLSGLSKAEKLQRLNLEGCTTLKAFPHDMKKMKMLAFLNLKGCTSLESLPEMNLISLKTLTLSGCSTFKEFPLISDNIETLYLDGTAISQLPMNMEKLQRLVVLNMKDCKMLEEIPGRVGELKALQELILSDCLNLKIFPEIDISFLNILLLDGTAIEVMPQLPSVQYLCLSRNAKISCLPVGISQLSQLKWLDLKYCTSLTSVPEFPPNLQCLDAHGCSSLKTVSKPLARIMPTEQNHSTFIFTNCENLEQAAKEEITSYAQRKCQLLSYARKRYNGGLVSESLFSTCFPGCEVPSWFCHETVGSELEVKLLPHWHDKKLAGIALCAVVSCLDPQDQVSRLSVTCTFKVKDEDKSWVAYTCPVGSWTRHGGGKDKIELDHVFIGYTSCPHTIKCHEEGNSDECNPTEASLKFTVTGGTSENGKYKVLKCGLSLVYAKDKDKNSALETKYDMLIGKSFQETSEGVDGRVKKTKGKYVMPVEKNFQETTEGVDGRVNKKKKTRMDNGRPKKKQRSGRDDNQTRMQVELQEGNINSVIMHTVKNF
As for B2, the binding entry in assay [2] is on record as “binds”.
